PubChem BioAssay AID504786 | Drosophila RNAi Screening Center | 2011
The screen tested about 21,000 reagents; shown is a random part of those with a known target gene and a result. 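Primary screen; positive scores mean lost reporter signal, so the sign may be inverted from the usual convention.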 Not all columns of the deposit are shown.

Screen: 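Positive regulators of HIF-driven reporter output in Drosophila cells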 (primary screen)
Cell system: Drosophila S2 cells with a stable HIF luciferase reporter
Reagent: long dsRNA against Drosophila genes, about 0.2 µg dsRNA per well of a 384-well plate
Duration: three days of knock-down, then 20 h of DFO before reading
Challenge: desferrioxamine (DFO) at 100 µM, an iron chelator that mimics hypoxia, for 20 h
Measurement: 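HIF reporter luminescence in cells given 100 µM DFO for 20 h, using the mouse ldh-a hypoxia-response element, scored as per-plate z-scores; higher means greater loss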
Direction: z-score: higher = stronger loss of HIF reporter signal

| gene knocked down | DRSC id | z-score, replicate 1 | z-score, replicate 2 | z-score, replicate 3 |
| --- | --- | --- | --- | --- |
| CG4115 | DRSC15545 | -0.5 | -0.5 | – |
| CG15046 | DRSC19622 | -0.3 | -0.2 | – |
| CG31275 | DRSC16919 | -0.5 | -0.5 | – |
| pho | DRSC17219 | -0.3 | 0.2 | – |
| CycT | DRSC11124 | 2.9 | 4.2 | – |
| Drep3 | DRSC06312 | -0.4 | -0.3 | 0.5 |
| Drep3 | DRSC07529 | -0.2 | -0.3 | – |
| Def | DRSC07398 | -0.2 | 0 | – |
| IFT43 | DRSC02892 | -0.3 | -0.5 | – |
| sim | DRSC17054 | -0.2 | -0.1 | – |
| Cyt-b5-r | DRSC03308 | 0 | -0.1 | – |
| Him | DRSC19638 | -0.4 | 0.3 | – |
| AOX4 | DRSC15337 | -0.2 | -0.3 | – |
| Or42b | DRSC04913 | -0.3 | 0.3 | – |
| Myb | DRSC20260 | 1.4 | 1.1 | – |
| Met | DRSC20284 | -0.3 | -0.7 | – |
| fog | DRSC20646 | -0.3 | 0 | – |
| SP2353 | DRSC07545 | 2.1 | 0.2 | – |
| CG32642 | DRSC18959 | -0.3 | -0.3 | – |
| Itpr | DRSC12354 | -0.4 | -0.3 | – |

Ordered by “z-score, replicate 1” (ascending): 2 of the entries above
| gene knocked down | DRSC id | z-score, replicate 1 | z-score, replicate 2 | z-score, replicate 3 |
| --- | --- | --- | --- | --- |
| pho | DRSC17219 | -0.3 | 0.2 | – |
| CycT | DRSC11124 | 2.9 | 4.2 | – |

The list goes on.
| gene knocked down | DRSC id | z-score, replicate 1 | z-score, replicate 2 | z-score, replicate 3 |
| --- | --- | --- | --- | --- |
| CG11588 | DRSC09145 | -0.3 | -0.7 | – |
| CG11588 | DRSC09846 | -0.3 | -0.4 | – |
| CG11192 | DRSC06057 | 0 | 0.3 | – |
| CG34461 | DRSC10767 | 0.5 | 0 | – |
| Cyp4s3 | DRSC20241 | -0.4 | 0 | – |
| Nipped-B | DRSC07815 | 0.7 | 0.5 | – |
| RpS24 | DRSC04414 | 1.4 | 5.9 | – |
| eIF2Bbeta | DRSC18465 | -0.1 | 0.2 | – |
| CG13912 | DRSC08381 | -0.2 | -0.3 | – |
| Dus3 | DRSC02059 | -0.2 | -0.3 | – |
| CecC | DRSC16606 | -0.1 | 0.6 | – |
| dpr4 | DRSC14531 | -0.1 | -0.3 | – |
| dpr4 | DRSC14929 | -0.3 | -0.6 | – |
| CG5250 | DRSC15752 | -0.1 | 0.2 | – |
